At least one peptide structure holds a part that was inferred or is arguable (an end, a ring closure or a residue). Where no end group is shown, it is not given here.
Test system: BALB/c mice
Assay: Whole body γ-irradiation of BALB/c mice (radiation disease)
Type: in vivo
Details: after 17 days; 6.5 Gy; 500 μg/mouse intraperitoneally one hour after irradiation
Description: To test whether Stressin peptide may protect an organism from death by excessive p53 activation and tissue failure by subjecting BALB/c mice to whole body […] (6.5 Gy). A retro-inverso peptide was used to determine whether prolonged in vivo half-life would give an advantage (see Example 6); retro-inverso peptides are resistant to proteases and consist of D-amino acids in reversed order, resulting in an altered peptide backbone but unchanged orientation of the side chains (Van Regenmortel, 1998).
BALB/c mice were subjected to whole body γ-irradiation (6.5 Gy). One hour after irradiation, the mice received intraperitoneally either Stressin-1 (n=7; SEQ ID NO:1) or a modified, retro-inverso Stressin-1 peptide (n=7; SEQ ID NO:5), both at a concentration of 500 μg/mouse, or a sham injection with saline (n=6). The retro-inverso peptide was used to determine whether prolonged in vivo-half-life would give an advantage.

## LPPLPYP [Stressin-1, LPPLPYP]
  mice dead: none
